Laboratory results published in PubChem BioAssay (NCATS).
This list was built around the results that the source calls inconclusive (neither active nor inactive); the mix of calls is not that of the screen. Where the call is inconclusive, the potency comes from a doubtful curve fit. Active and inactive are the calls of the source. Calls come from the whole dose curve; as a rule, active = well fitted curve in the direction sought with a large enough effect; inconclusive = small, poorly fitted or top-dose-only effect, or another doubt; inactive = no such curve, though single readings can be large; an effect the other way counts as inactive or inconclusive.

Amino acid sequences for entries named in this document (tags omitted). A change or cut given only in a name is not applied to a line headed by its entry.
UniProt Q9BV86: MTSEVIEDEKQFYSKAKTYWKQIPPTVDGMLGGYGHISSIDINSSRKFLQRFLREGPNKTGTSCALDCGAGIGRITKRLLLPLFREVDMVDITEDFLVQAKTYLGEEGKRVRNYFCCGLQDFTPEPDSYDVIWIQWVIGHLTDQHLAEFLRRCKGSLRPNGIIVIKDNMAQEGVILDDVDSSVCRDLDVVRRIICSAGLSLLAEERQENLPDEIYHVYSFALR

Tests used:
[1] = qHTS of pediatric cancer cell lines to identify multiple opportunities for drug repurposing: Confirmatory screen for LAN-5 cells (AID 1347113); note: nearly all actives have a fitted effect of over 65% in size
Procedure, shortened: (§1)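 Cells (500-1,000/well) rested 5 h, then received compounds for 48 h; metabolically active cells were measured by CellTiter-Glo luminescence. Final concentrations spanned up to 46 µM (MIPE, 11-point) or 0.59 nM-46 µM (NPC, 8-point) in primary screens, 11-point in follow-ups.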

[2] = qHTS of pediatric cancer cell lines to identify multiple opportunities for drug repurposing: Confirmatory screen for DAOY cells (AID 1347114); note: nearly all actives have a fitted effect of over 65% in size
Procedure, shortened: (§2)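 Viability measured as metabolically active cells via CellTiter-Glo luminescence following 48 hours of compound exposure, 11-point dilutions in confirmatory testing. 500-1,000 cells/well plated 5 hours before dosing; controls were DMSO and 2.3 µM bortezomib.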

[3] = qHTS of pediatric cancer cell lines to identify multiple opportunities for drug repurposing: Confirmatory screen for NB-EBc1 cells (AID 1347115);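 note: cells exposed to compound for 48 h before the viability read; nearly all actives have a fitted effect of over 45% in size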; for activity change, negative = cytotoxic: % is set by controls: 0 for no effect and ±100 for the full control effect
Procedure, shortened: as §1

[4] = qHTS of pediatric cancer cell lines to identify multiple opportunities for drug repurposing: Confirmatory screen for SJ-GBM2 cells (AID 1347116); note: nearly all actives have a fitted effect of over 60% in size;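 for activity change, negative = cytotoxic: plate controls were DMSO for no effect and bortezomib for full effect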
Procedure, shortened: as §2

[5] = qHTS of pediatric cancer cell lines to identify multiple opportunities for drug repurposing: Confirmatory screen for BT-37 cells (AID 1347117); note: nearly all actives have a fitted effect of over 55% in size;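 for activity change, negative = cytotoxic: plate controls were DMSO for no effect and bortezomib for full effect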
Procedure, shortened: as §1

[6] = qHTS of pediatric cancer cell lines to identify multiple opportunities for drug repurposing: Confirmatory screen for TC32 cells (AID 1347118);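 note: cells exposed to compound for 48 h before the read; nearly all actives have a fitted effect of over 65% in size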; for activity change, negative = cytotoxicity: % is set by controls: 0 for no effect and ±100 for the full control effect
Procedure, shortened: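 TC32 cells, 500-1,000/well in growth medium, compound-treated 48 h at 37 °C; viability from CellTiter-Glo luminescence. Primary screen: MIPE 11-point (0.78 nM–46 µM final), NPC 8-point (0.59 nM–46 µM final); confirmatory at 11-point dilutions.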

[7] = qHTS of pediatric cancer cell lines to identify multiple opportunities for drug repurposing: Confirmatory screen for MG 63 (6-TG R) cells (AID 1347119); details: MG-63 (6-TG resistant) osteosarcoma viability; activity change, negative = cytotoxicity: at 45.9 µM (top of the series); note: nearly all actives have a fitted effect of over 55% in size;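 for activity change, negative = cytotoxicity: plate controls were DMSO neutral control for no effect and bortezomib for full effect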
Procedure, shortened: as §1

[8] = qHTS of pediatric cancer cell lines to identify multiple opportunities for drug repurposing: Confirmatory screen for Rh41 cells (AID 1347123);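 note: 48 h compound exposure; nearly all actives have a fitted effect of over 60% in size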;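 for activity change, negative = cytotoxic: plate controls were DMSO for no effect and bortezomib for full effect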
Procedure, shortened: as §1

[9] = qHTS of pediatric cancer cell lines to identify multiple opportunities for drug repurposing: Confirmatory screen for Rh30 cells (AID 1347126); note: nearly all actives have a fitted effect of over 55% in size; for activity change, negative = cytotoxic: % is set by controls: 0 for no effect and ±100 for the full control effect
Procedure, shortened: as §1

[10] = qHTS of pediatric cancer cell lines to identify multiple opportunities for drug repurposing: Confirmatory screen for Saos-2 cells (AID 1347127); note: nearly all actives have a fitted effect of over 60% in size;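 for activity change, negative = cytotoxic: plate controls were DMSO for no effect and bortezomib for full effect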
Procedure, shortened: as §1

[11] = qHTS of pediatric cancer cell lines to identify multiple opportunities for drug repurposing: Confirmatory screen for OHS-50 cells (AID 1347128);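 note: compound exposure lasted 48 h at 37 degrees C; nearly all actives have a fitted effect of over 55% in size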; for activity change, negative = cytotoxic: % is set by controls: 0 for no effect and ±100 for the full control effect
Procedure, shortened: as §1

[12] = qHTS of pediatric cancer cell lines to identify multiple opportunities for drug repurposing: Confirmatory screen for Rh18 cells (AID 1347125); note: nearly all actives have a fitted effect of over 55% in size
Procedure, shortened: as §1

[13] = qHTS of pediatric cancer cell lines to identify multiple opportunities for drug repurposing: Confirmatory screen for control Hh wild type fibroblast cells (AID 1347121); note: nearly all actives have a fitted effect of over 70% in size
Procedure, shortened: as §1

[14] = qHTS of pediatric cancer cell lines to identify multiple opportunities for drug repurposing: Confirmatory screen for U-2 OS cells (AID 1347122); note: nearly all actives have a fitted effect of over 65% in size
Procedure, shortened: as §1

[15] = qHTS of pediatric cancer cell lines to identify multiple opportunities for drug repurposing: Confirmatory screen for RD cells (AID 1347124); details: RD rhabdomyosarcoma cell viability; activity change, negative = cytotoxic: at 45.9 µM (top of the series)
Procedure, shortened: as §1

[16] = qHTS of pediatric cancer cell lines to identify multiple opportunities for drug repurposing: Confirmatory screen for SK-N-SH cells (AID 1347129);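 note: cells exposed to compound for 48 h before viability read; nearly all actives have a fitted effect of over 60% in size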;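 for activity change, negative = cytotoxic: plate controls were DMSO for no effect and bortezomib control for full effect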
Procedure, shortened: as §1

[17] = molecular target: N-terminal Xaa-Pro-Lys N-methyltransferase 1 (Homo sapiens) (UniProt Q9BV86); experiment: qHTS Assay for Inhibitors of N-terminal methyltransferase 1 (NTMT1): LOPAC validation of the NTMT1 SAHH-coupled ThioGlo3 Assay (AID 1347143);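 note: SAH from peptide methylation measured as thiol fluorescence via SAHH coupling and ThioGlo3; nearly all actives have a fitted effect of over 70% in size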
Procedure, shortened: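 NTMT1 125nM + cpds (various conc.), 1 min RT; add SAM 100uM/SAHH 10uM/ThioGlo3 15uM (addition mix). SAHH-coupled thiol detection, Ex340/Em450, t0 and 30 min RT; signal normalized to background. LOPAC 1280-cpd pilot.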
Potency is the fitted concentration of half-maximal effect.

Cc1ccccc1-n1c(Cn2cnc3c(N)ncnc32)nc2cccc(C)c2c1=O
Potency [1]: inconclusive: 2.93 µM [rising, full curve]
Potency [2]: inconclusive: 18.5 µM [cytotoxic, partial curve, poor fit]
Potency [3]: inactive
Potency [4]: inactive
Potency [5]: inactive
Potency [6]: inactive
Potency [7]: inconclusive: 36.9 µM [cytotoxic, single point]
Potency [8]: inactive
Potency [9]: inactive
Potency [10]: inactive
Potency [11]: inactive

COc1ccc2c(C(=O)c3ccc(Cl)cc3)c(C)n(CC(=O)O)c2c1
Potency [1]: inactive
Potency [2]: inactive
Potency [4]: inactive
Potency [7]: inactive
Potency [12]: inactive
Potency [9]: inconclusive: 0.465 µM [cytotoxic, full curve, poor fit]

C[C@@H]1[C@@H](CC(C[C@H]2O[C@@H]3O[C@]4(C)CC[C@@H]5[C@H](C)CC[C@@H]([C@H]2C)[C@@]35OO4)C[S+](=O)([O-])c2ccc(COC(=O)N(C)C)cc2)O[C@@H]2O[C@]3(C)CC[C@H]4[C@H](C)CC[C@@H]1[C@@]24OO3 (some centres not stated)
Potency [1]: active: 1.04 µM
Potency [2]: active: 1.04 µM
Potency [5]: active: 0.233 µM
Potency [13]: active: 13.1 µM
Potency [14]: inconclusive: 0.657 µM [cytotoxic, full curve, poor fit]
Potency [15]: inconclusive: 0.117 µM [cytotoxic, full curve, poor fit]
Potency [12]: inconclusive: 5.22 µM [cytotoxic, partial curve]
Potency [10]: inconclusive: 0.293 µM [cytotoxic, full curve]
Potency [11]: active: 0.233 µM
Potency [16]: inconclusive: 0.526 µM [cytotoxic, full curve]

COC[C@@H](NC(C)=O)C(=O)NCc1ccccc1
Potency [1]: inactive
Potency [2]: inconclusive: 0.657 µM [cytotoxic, full curve, poor fit]
Potency [3]: inactive
Potency [4]: inconclusive: 11.7 µM [cytotoxic, single point]
Potency [6]: inconclusive: 9.27 µM [cytotoxic, single point]
Potency [7]: inactive
Potency [14]: inconclusive: 0.329 µM [cytotoxic, full curve, poor fit]
Potency [8]: inconclusive: 1.47 µM [cytotoxic, partial curve, poor fit]
Potency [15]: inconclusive: 0.0369 µM [cytotoxic, full curve, poor fit]
Potency [12]: inactive
Potency [9]: inconclusive: 7.37 µM [cytotoxic, full curve]
Potency [11]: inactive
Potency [16]: inactive

CC(C)CC(N(C)C)C1(c2ccc(Cl)cc2)CCC1 (configuration not stated)
Potency [1]: inconclusive: 29.3 µM [cytotoxic, partial curve, poor fit]
Potency [2]: inactive
Potency [3]: inactive
Potency [4]: inconclusive: 36.9 µM [cytotoxic, single point]
Potency [5]: inconclusive: 6.57 µM [cytotoxic, partial curve, poor fit]
Potency [6]: active: 23.3 µM
Potency [7]: inconclusive: 26.1 µM [cytotoxic, single point]
Potency [13]: inconclusive: 20.8 µM [cytotoxic, single point]
Potency [14]: inconclusive: 16.5 µM [cytotoxic, partial curve]
Potency [8]: inactive
Potency [15]: inconclusive: 36.9 µM [cytotoxic, single point]
Potency [9]: inconclusive: 36.9 µM [cytotoxic, single point]
Potency [10]: inconclusive: 4.14 µM [cytotoxic, partial curve, poor fit]
Potency [11]: inconclusive: 36.9 µM [cytotoxic, single point]

CC1Sc2c(C(=O)O)c(=O)c3cc(F)c(N4CCNCC4)cc3n21 (configuration not stated)
Potency [1]: inactive
Potency [2]: inconclusive: 9.27 µM [cytotoxic, full curve, poor fit]
Potency [4]: inconclusive: 1.17 µM [rising, full curve, poor fit]
Potency [7]: inconclusive: 0.737 µM [rising, full curve]
Potency [13]: inactive
Potency [8]: inactive
activity change, negative = cytotoxic [15]: inconclusive: 16.4%
Potency [9]: inconclusive: 11.7 µM [cytotoxic, single point]
Potency [10]: inconclusive: 0.737 µM [rising, full curve]
Potency [11]: inactive

Cc1[nH]nc2ccc(-c3cncc(OC[C@@H](N)Cc4c[nH]c5ccccc45)c3)cc12
Potency [1]: active: 2.33 µM
Potency [2]: inconclusive: 1.31 µM [cytotoxic, full curve, poor fit]
Potency [3]: inconclusive: 1.85 µM [cytotoxic, full curve, poor fit]
Potency [4]: inconclusive: 3.69 µM [rising, full curve, poor fit]
Potency [6]: active: 2.33 µM
Potency [13]: active: 18.5 µM
Potency [14]: inconclusive: 0.0074 µM [cytotoxic, full curve, poor fit]
Potency [8]: inconclusive: 0.0033 µM [cytotoxic, full curve, poor fit]
Potency [9]: inconclusive: 0.0041 µM [cytotoxic, full curve, poor fit]
Potency [16]: active: 2.96 µM

CC(C)(C)C(O)C(Oc1ccc(Cl)cc1)n1cncn1 (configuration not stated)
Potency [1]: inconclusive: 10.7 µM [rising, full curve, poor fit]
Potency [2]: inactive
Potency [6]: inactive
Potency [7]: inactive
Potency [14]: inactive
Potency [8]: inactive
Potency [9]: inactive

Cc1c(C(=O)Nc2cccc(C(F)(F)F)c2)cc(-c2ccccc2)n1CCCN1CCOCC1
Potency [2]: active: 38 µM
Potency [3]: active: 42.7 µM
Potency [4]: inconclusive: 67.6 µM [cytotoxic, single point]
Potency [5]: active: 42.7 µM
Potency [6]: inconclusive: 53.7 µM [cytotoxic, single point]
Potency [7]: inconclusive: 42.7 µM [cytotoxic, partial curve, poor fit]
Potency [13]: inconclusive: 38 µM [cytotoxic, partial curve, poor fit]
Potency [15]: inconclusive: 67.6 µM [cytotoxic, single point]
Potency [12]: inconclusive: 42.7 µM [cytotoxic, partial curve]
Potency [9]: inconclusive: 67.6 µM [cytotoxic, single point]
Potency [10]: inconclusive: 42.7 µM [cytotoxic, single point]
Potency [16]: inconclusive: 38.2 µM [cytotoxic, partial curve]

CCOP(=S)(OCC)Oc1ccc2c(C)c(Cl)c(=O)oc2c1
Potency [1]: inconclusive: 32.9 µM [cytotoxic, single point]
Potency [4]: inactive
Potency [5]: inconclusive: 26.1 µM [cytotoxic, partial curve]
Potency [6]: inconclusive: 26.1 µM [cytotoxic, single point]
Potency [7]: inactive
Potency [13]: inconclusive: 0.0737 µM [rising, full curve]
Potency [8]: inactive
Potency [9]: inactive
Potency [10]: inactive

CCCN(CCC)C(=O)Cc1c(-c2ccc(Cl)cc2)nc2ccc(Cl)cn12
Potency [2]: inconclusive: 9.27 µM [cytotoxic, full curve, poor fit]
Potency [5]: inactive
Potency [6]: inconclusive: 11.7 µM [cytotoxic, single point]
Potency [14]: inconclusive: 36.9 µM [cytotoxic, single point]
Potency [12]: inactive
Potency [10]: inactive
Potency [16]: inactive

CN(C)C(=S)SSC(=S)N(C)C
Potency [2]: inconclusive: 11.7 µM [cytotoxic, partial curve, poor fit]
Potency [3]: active: 0.928 µM
Potency [4]: active: 8.27 µM
Potency [7]: inconclusive: 23.3 µM [cytotoxic, single point]
Potency [14]: active: 3.69 µM
Potency [9]: inconclusive: 1.31 µM [cytotoxic, partial curve, poor fit]
Potency [11]: inconclusive: 26.1 µM [cytotoxic, single point]
Potency [16]: active: 11.8 µM

O=P1(N(CCCl)CCCl)NCCCO1 (configuration not stated)
Potency [2]: inconclusive: 0.0037 µM [cytotoxic, full curve, poor fit]
Potency [3]: inactive
Potency [4]: inconclusive: 36.9 µM [rising, single point]
Potency [5]: inactive
Potency [6]: inactive
Potency [14]: inactive
Potency [10]: inactive
Potency [16]: inactive
Potency [17]: inconclusive: 3.16 µM [inhibitor, partial curve, poor fit]

C[C@@H]1O[C@@H](O[C@@H]2C=C3CC[C@@H]4[C@H](CC[C@]5(C)[C@@H](c6ccc(=O)oc6)CC[C@]45O)[C@@]3(C)CC2)[C@H](O)[C@H](O)[C@H]1O
Potency [2]: inconclusive: 0.0083 µM [cytotoxic, full curve, poor fit]
Potency [3]: active: 0.0293 µM
Potency [13]: inconclusive: 0.0117 µM [cytotoxic, full curve]
Potency [14]: inconclusive: 0.0147 µM [cytotoxic, full curve, poor fit]
Potency [8]: inconclusive: 0.0131 µM [cytotoxic, full curve, poor fit]
Potency [9]: inconclusive: 0.0522 µM [cytotoxic, full curve, poor fit]
Potency [10]: active: 0.185 µM
Potency [11]: inconclusive: 0.0147 µM [cytotoxic, full curve]

CCc1ccc(C2CCNCC2)cc1
Potency [1]: inactive
Potency [4]: inconclusive: 0.0104 µM [rising, full curve]
Potency [5]: inactive
Potency [6]: inconclusive: 36.9 µM [rising, single point]
Potency [7]: inactive
Potency [14]: inactive
Potency [15]: inconclusive: 0.0147 µM [rising, full curve]
Potency [9]: inactive
